Data as given in PubChem BioAssay AID1508597 (Cure First, 2020).
Shown is a random part of the about 2,100 reagents, in one setting of the screen. 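Calls flag viability under 80% in either arm, not effects specific to rucaparib; the reference for percent is not stated.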 A number with no mark means an inactive call. Some reagents were tested in more than one well and are listed for each. The record does not give: the 100% reference.

- Assay: 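Survival screen with siRNA in ovarian cancer cells derived from patients, with or without rucaparib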 (primary screen)
- Cell system: human ovarian carcinoma lines grown from tumours: OCI-P5x (papillary serous) and OCI-C5x (clear cell)
- Knock-down reagent: siRNA pool against human genes, 1.25 pmol siRNA per well
- Duration: 72 h or 96 h, depending on the cell culture
- Treatment: rucaparib 20 µM (about IC30) or vehicle, present until read-out
- Rucaparib or vehicle: Vehicle
- Cell line: OCI-P5x (serous)
- Detection: 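Luminescent ATP-based viability assay read 72 or 96 h after transfection, depending on culture, given as normalised percent viability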
- Reading the numbers: viability, normalised: higher = more viable cells remaining
- Call rule: 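a well counts as a hit if its normalised viability is under 80 percent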
- Meaning of the calls: active = viability under 80%; inactive = viability 80% or more

target | technical replicate | viability, normalised (%)
CACNA1A | 1 | 50.7 (active)
CACNA1A | 2 | 95
CACNA1A | 3 | 89.8
MED7 | 1 | 62.4 (active)
MED7 | 2 | 63 (active)
MED7 | 3 | 54.8 (active)
SLC16A9 | 1 | 71.8 (active)
SLC16A9 | 2 | 64 (active)
SLC16A9 | 3 | 95.3
HASPIN | 1 | 63.8 (active)
HASPIN | 1 | 67.6 (active)
HASPIN | 1 | 78.1 (active)
HASPIN | 2 | 77.3 (active)
HASPIN | 2 | 56.9 (active)
HASPIN | 2 | 47.6 (active)
HASPIN | 3 | 85.6
HASPIN | 3 | 68.9 (active)
HASPIN | 3 | 67.2 (active)
SMARCA1 | 1 | 53.6 (active)
SMARCA1 | 2 | 37.5 (active)
SMARCA1 | 3 | 70.9 (active)
HDGF | 1 | 69.8 (active)
HDGF | 2 | 84
HDGF | 3 | 67.2 (active)
MTA1 | 1 | 48.2 (active)
MTA1 | 2 | 54.5 (active)
MTA1 | 3 | 56.7 (active)
BDP1 | 1 | 61.3 (active)
BDP1 | 2 | 69.8 (active)
BDP1 | 3 | 71.9 (active)
PRDM6 | 1 | 48.8 (active)
PRDM6 | 2 | 70.8 (active)
PRDM6 | 3 | 140
BRD9 | 1 | 76 (active)
BRD9 | 2 | 68.6 (active)
BRD9 | 3 | 89.8
DGKI | 1 | 69 (active)
DGKI | 2 | 55.7 (active)
DGKI | 3 | 62.7 (active)
MDC1 | 1 | 87.2
MDC1 | 2 | 84.9
MDC1 | 3 | 66.9 (active)
PRPS1 | 1 | 86.9
PRPS1 | 2 | 96.6
PRPS1 | 3 | 64.1 (active)
DCP2 | 1 | 67.7 (active)
DCP2 | 2 | 80.1
DCP2 | 3 | 72.3 (active)
TK2 | 1 | 52.2 (active)
TK2 | 2 | 48.3 (active)
TK2 | 3 | 49.2 (active)
PELO | 1 | 70.2 (active)
PELO | 2 | 73.5 (active)
PELO | 3 | 88.1
PIM1 | 1 | 92.3
PIM1 | 2 | 79.8 (active)
PIM1 | 3 | 92.8

Taken from above:
For “viability, normalised (%)”, HDGF, technical replicate 1 has 69.8 (active)
Entry of DCP2, technical replicate 1 under “viability, normalised (%)”: 67.7 (active)
Value of SLC16A9, technical replicate 3 in “viability, normalised (%)”: 95.3
For “viability, normalised (%)”, MED7, technical replicate 3 shows 54.8 (active)
Entry for PIM1, technical replicate 2 in “viability, normalised (%)”: 79.8 (active)
For “viability, normalised (%)”, DCP2, technical replicate 2 shows 80.1
